Drawing on PMC4916389, this text covers binding for 2 molecules.

Test [1] deals with T1, TAP42, yeast two-hybrid fusion (Sordaria macrospora) (UniProt F7VNJ5).
T1 sequence: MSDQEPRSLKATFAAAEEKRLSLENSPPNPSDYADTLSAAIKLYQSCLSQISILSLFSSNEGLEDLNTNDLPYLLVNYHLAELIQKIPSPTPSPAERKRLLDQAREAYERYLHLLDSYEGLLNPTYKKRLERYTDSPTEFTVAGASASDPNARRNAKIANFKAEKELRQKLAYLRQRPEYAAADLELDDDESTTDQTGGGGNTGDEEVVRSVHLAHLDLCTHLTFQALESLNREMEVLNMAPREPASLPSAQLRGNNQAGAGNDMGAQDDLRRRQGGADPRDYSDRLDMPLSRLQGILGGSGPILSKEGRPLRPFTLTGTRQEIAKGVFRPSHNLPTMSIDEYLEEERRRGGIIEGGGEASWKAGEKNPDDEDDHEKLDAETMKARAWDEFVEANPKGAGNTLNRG
The experiment in a line: two-hybrid; Gal4 AD (pGADT7 derivatives, PJ69-4a) and BD (pGBKT7 derivatives, PJ69-4α) fusions in mated diploid S. cerevisiae; growth on SD medium lacking adenine, histidine, leucine and tryptophan/uracil; transactivating constructs pB-pp2Ac1, pB-pro11, pB-Smmob3 and pB-ENT1 omitted.

Test [2] has as its target MAPK MAK1, yeast two-hybrid fusion (Sordaria macrospora). The test is described as above.

No constants are given. Whether binding was seen depends on the method and setting. Binding can be weak; no strength is given. Where a sequence is shown, tags or fusion partners need not be part of it.

With “MAPK MAK1, yeast two-hybrid fusion (Sordaria macrospora) (enzyme)”, in test [1], the binding entry is listed as “binds”.

B1: PRO22, yeast two-hybrid fusion (protein, UniProt F7VWV9 1-1120)
chain: MTIMNALWSKATSSSGDSAQKSAKPTNDAVNTTSEALPDLSERPNAPALPARPALQRNQPSAPPPAAPSNPPPPVPSGSGSGNANNASAQPQDSLSLAQLRRIVAEFPKSEPIAYDYVYSDMGPIEEEVDEWFFYDFWQYVRLNNANHAFDSAWVKMYGEDETWESVDDDGREKFVRNEVEQLQVSSDKTARVEAIGTLLYIVLGRWTATVKKANLPNLADHKVKSAATKEQLDAMKAGVKLLAKYGGLPPMWDALRKAFELFWADDGDASQRVQANNEELMELMHLMTILYISLQTTMDDVEDMAVARKELLALNPNLVHFMLHATAKLRWDDRNILPQAQVGSATFGIPVAANQHRMLMSSQVFLLFWKSLLLVFGGSKHIAEAKKATAETLSDVKDKEIITASPLDYHVFRQEITSKYPSYIPPQCAIPLEAEQTSILPPLPNHPTRNNGQNGILPGPPNQSASASILHQPVHIATPAPSPPPSPGVGGKGGKKQNYQTNQNFPFMYPPLDATSNSAGGKGGAGLQDLLVGRKWEGSDVPASIIEAGELFSTRTRMTRATRQLWEERERFLKFERGWEGADEDLIDELDLSELTLEEKEELGLLKESEKKKEKHGHEIDLGPRPVDDDIKRRLEAVEEFYKEALPHLQSLVIVLLKAIVAIASSFVQPPPGQQNPGPQNNGRAGGGPPQGRGQNNGNNASNDPPSPSDDNVDEARSREIAAKAVTGIMILLLKWLKLSHILKFEYFTQLLLDSNYLPLVLKLFALHDVQQVVESKTDRIEHSFFYFCASRSGVIPPQGLINPTATDFEDVDVSEDEAAPPAIKRNRSPPGAEKGGPPDASSQPTQQQQQQQRFENSDVQSRPEVDELGYPVNPLPKEPITDFSRRNFFSLINYLRVMQKICKHKAHRNLLLVHYKSSNILRKSLKVPQQELRLYTLKLFKNQVPYCGRKWRQSNMRVITAIYLHCRPELRDEWLSGSDVDAEVEEALPLEQALRSLTHWFNVQRYPERMGAEVTAAMREERDFFTRELEKSDWMGWEGIMAGGGMGMDGGGGGPEPMMGMQGMQGMPGMPGMGMGMNMGMPGMGIGGMPGMGGMAGIEYAAAAAAAQTEHENSMGWS
In the case of B1, in test [2], the binding entry is recorded as “binds”.
